These are yes or no findings as the source states them, for the method shown. Some binding calls cover weakened binding; strength is not graded here.
Biological target: olfactory receptor mOR103-15 (UniProt Q9QWU6)
Experiment: SDS-PAGE (silver stain and western blot); immunoaffinity-purified receptors in PBS + 0.2% FC-14; samples kept at room temperature (not boiled) before loading on 10% Bis-Tris SDS-PAGE gels; monomeric and dimeric bands seen; both purified

B1: olfactory receptor mOR103-15 (receptor, UniProt Q9QWU6 1-327)
chain: MERRNHTGRVSEFVLLGFPAPAPLRALLFFLSLLAYVLVLTENILIITAIRNHPTLHKPMYFFLANMSFLEIWYVTVTIPKMLAGFIGSEENHGQLISFEACMTQLYFFLGLGCTECVLLAVMAYDRYVAICHPLHYPVIVSSRLCVQMAAGSWAGGFGISMVKVFLISRLSYCGPNTINHFFCDVSPLLNLSCTDMSTAELTDFILAIFILLGPLSVTGASYMAITGAVMRIPSAAGRHKAFSTCASHLTVVIIFYAASIFIYARPKALSAFDTNKLVSVLYAVIVPLLNPIIYCLRNQEVKKALRRTLHLAQGQDANTKKSSRDG
  binding: binds
